No constants are given. Whether binding was seen depends on the method and setting. For part of these data: Binding seen in cells or lysates may run through a third protein. Some entries that bind do so weakly or less than the wild type. For part of these data: Sequences can lack the tags named with a protein.

Test [1] concerns the target T1, DrTHUMPD2 (purified) (zebrafish).
T1 sequence: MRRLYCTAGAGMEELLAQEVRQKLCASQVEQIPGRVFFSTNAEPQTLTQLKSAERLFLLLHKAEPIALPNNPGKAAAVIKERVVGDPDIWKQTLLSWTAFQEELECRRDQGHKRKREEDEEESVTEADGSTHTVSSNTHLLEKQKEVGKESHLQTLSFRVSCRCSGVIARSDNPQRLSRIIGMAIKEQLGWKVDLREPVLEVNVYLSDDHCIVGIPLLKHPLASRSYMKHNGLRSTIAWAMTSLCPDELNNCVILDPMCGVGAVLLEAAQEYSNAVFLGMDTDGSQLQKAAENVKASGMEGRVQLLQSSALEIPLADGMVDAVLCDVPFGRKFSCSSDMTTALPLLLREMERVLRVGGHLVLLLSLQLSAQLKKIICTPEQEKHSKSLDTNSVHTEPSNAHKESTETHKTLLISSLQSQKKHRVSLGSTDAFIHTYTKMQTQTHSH
The test can be described thus: SEC. In general terms: Size exclusion chromatography separates by hydrodynamic size, large species first.

Test [2] has as its target T2, MmTHUMPD2 (purified) (mouse) (UniProt Q9CZB3).
T2 sequence: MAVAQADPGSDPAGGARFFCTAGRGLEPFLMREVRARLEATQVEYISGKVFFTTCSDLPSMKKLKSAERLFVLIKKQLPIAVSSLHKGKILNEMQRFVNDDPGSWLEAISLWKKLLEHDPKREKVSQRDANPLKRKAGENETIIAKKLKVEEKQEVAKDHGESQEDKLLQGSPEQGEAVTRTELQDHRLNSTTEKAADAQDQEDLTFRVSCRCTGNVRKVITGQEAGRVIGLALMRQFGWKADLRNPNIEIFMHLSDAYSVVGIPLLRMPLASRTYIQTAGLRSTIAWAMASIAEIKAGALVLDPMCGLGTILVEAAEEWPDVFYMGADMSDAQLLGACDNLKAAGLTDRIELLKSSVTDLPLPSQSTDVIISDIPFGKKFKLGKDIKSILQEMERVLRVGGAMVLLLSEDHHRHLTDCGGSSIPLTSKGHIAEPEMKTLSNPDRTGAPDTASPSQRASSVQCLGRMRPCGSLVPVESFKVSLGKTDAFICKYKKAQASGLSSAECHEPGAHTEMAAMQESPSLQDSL
The test is described as follows: SEC.

The target in test [3] is T3, HsTHUMPD2-HA (human THUMP domain containing protein 2 with a C-terminal HA-tag) (human) (UniProt Q9BTF0).
T3 sequence: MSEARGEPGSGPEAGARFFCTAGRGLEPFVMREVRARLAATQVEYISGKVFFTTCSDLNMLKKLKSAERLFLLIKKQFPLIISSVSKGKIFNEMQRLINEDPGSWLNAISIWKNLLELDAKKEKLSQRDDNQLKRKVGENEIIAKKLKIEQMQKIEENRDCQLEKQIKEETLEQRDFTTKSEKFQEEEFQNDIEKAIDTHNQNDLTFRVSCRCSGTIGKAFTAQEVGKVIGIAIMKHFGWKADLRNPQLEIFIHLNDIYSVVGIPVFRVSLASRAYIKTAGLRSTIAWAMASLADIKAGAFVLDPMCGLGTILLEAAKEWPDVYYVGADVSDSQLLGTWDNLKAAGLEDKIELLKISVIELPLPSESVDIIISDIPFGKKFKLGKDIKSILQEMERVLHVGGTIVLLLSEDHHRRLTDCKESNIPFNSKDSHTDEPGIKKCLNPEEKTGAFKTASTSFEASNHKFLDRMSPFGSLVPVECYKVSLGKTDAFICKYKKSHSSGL
The test can be described thus: co-IP.

B1: DrTRMT112 (purified) (protein, UniProt Q503F3 1-122)
chain: MKLLTHNMLTSHVKGVTKGYPLIIKATEVKVNELDFNAQFVSRMIPKLEWPALVQAAEWLGQSQELPDTLIPDYENDEEFLRKVHRVLLEVEVIEGCLQCPESGREFPISKGVPNMLLNEGE
Turning to B1, in test [1], the binding entry is listed as “binds”.

B2: MmTRMT112 (purified) (protein, UniProt Q9DCG9 1-125)
chain: MKLLTHNLLSSHVRGVGTRGFPLRLQATEVRINPVEFNPEFVARMIPKVEWAALVQAADTLNLAEVPKEPTEGYEHDETFLRKMHHVLLEVDVLEGTLQCPESGRLFPISRGIPNMLLNDEETET
Consider B2, for which the binding entry in test [2] is “binds”.

B3: HsTRMT112 (purified) (natural protein, human, UniProt Q9UI30-1 1-125, looked up)
chain: MKLLTHNLLSSHVRGVGSRGFPLRLQATEVRICPVEFNPNFVARMIPKVEWSAFLEAADNLRLIQVPKGPVEGYEENEEFLRTMHHLLLEVEVIEGTLQCPESGRMFPISRGIPNMLLSEEETES
For the molecule B3, the binding entry in test [3] is given as “binds”.

For the origin of these results see doi:10.1101/2023.06.17.545410 (bioRxiv, 2023).
